# Experimental data published in PubChem BioAssay AID2685 (National Center for Advancing Translational Sciences (NCATS), 2010).
# Some of the results follow. Shown are side measurements of this screen, not its main read-out; they come without a call. The list favours compounds with an active or inconclusive main result. Words in brackets tell the shape of the fitted curve; partial curves, single points and poor fits give uncertain potencies.
# Assay: qHTS Assay for Lipid Storage Modulators in Drosophila S3 Cells;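 for cell number change: cells counted by Cell Tracker Red CMTPX staining in the red channel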
# Conditions: BODIPY lipid droplet fluorescence, 18-24 h; for cell number change: measured here: cell count max response, cells fed with added oleic acid
# Method in brief: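 Laser-scanning cytometry quantifies lipid droplet accumulation (500–530 nm total intensity; droplet/cell object ratio) in oleic acid-fed (400 uM added) Drosophila S3 cells treated with a concentration series. 20 uM Triacsin C defined 100% inhibition.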
# [1] = measured here: lipid fluorescence (Fed channel) AC50, cells fed with added oleic acid
# [2] = measured here: cell number channel AC50, cells fed with added oleic acid
SMILES,AC50 [1],cell number change [%],AC50 [2]
CC(=O)Nc1ccc(N=Cc2nc(-c3ccc(C)cc3)oc2O)cc1,"0.58 µM [rising, single point]",,
NS(=O)(=O)c1ccc(CNC(=O)Cc2cccs2)cc1,"6.51 µM [rising, single point]",10.6,
CCc1cc(C(=O)N2CCN(c3ncc(C(F)(F)F)cc3Cl)CC2)sc1C,,48.7,"20.6 µM [rising, single point]"
CCOc1ccc(C(=O)COC(=O)C2CCN(c3ccc(C(F)(F)F)cn3)CC2)cc1,"0.461 µM [falling, full curve]",5.16,"0.411 µM [falling, full curve]"
Cc1ccc(OC(=O)c2ccc(C)c([N+](=O)[O-])c2)cn1,,26.2,
O=C(N/N=C/c1ccc([N+](=O)[O-])o1)c1ccc(O)cc1,"18.4 µM [falling, single point]",-58.7,"20.6 µM [falling, single point]"
CCCn1c(SCC(=O)N2CCc3ccccc32)nnc1-c1ccncc1,,-3.73,"0.0058 µM [falling, full curve, poor fit]"
O=C(COC(=O)CN1C(=O)C2CCCCC2C1=O)Nc1cc(S(=O)(=O)N2CCOCC2)ccc1Cl (stereo not given),"4.11 µM [falling, full curve]",-0.59,
Cn1nc(-c2ccc(Cl)cc2)nc2c(=O)n(C)c(=O)nc1-2,"10.3 µM [falling, partial curve]",-70.8,"11.6 µM [falling, partial curve]"
COc1ccc(C2(C)NC(=O)N(CC(=O)c3ccc4c(c3)OCO4)C2=O)cc1 (stereo not given),,10.4,
COc1ccc(-c2nc3ccc(C(=O)NCCCN4CCOCC4)cc3nc2-c2ccc(OC)cc2)cc1,"2.59 µM [falling, full curve, poor fit]",10.1,
Cc1cc(C(=O)OC(C)C(=O)Nc2nc(-c3ccccc3)cs2)c(C)o1 (stereo not given),"0.0651 µM [falling, full curve, poor fit]",-36.9,"32.6 µM [falling, partial curve, poor fit]"
C/C(=N/Nc1ccc([N+](=O)[O-])cc1)c1c[nH]c2ccccc12,"9.2 µM [falling, single point]",,
CC(=O)Nc1nc(C(=O)O)cs1,,-36.8,"32.6 µM [falling, single point]"
Cc1sc2c(c1C)c(=O)n(-c1ccc(F)cc1)c(=O)n2CC(=O)NCc1ccco1,"29.1 µM [rising, single point]",26.7,
CC(CCc1ccccc1)NC(=O)CCNC(=O)Cn1ccc2ccccc2c1=O (stereo not given),,51.8,"32.6 µM [rising, single point]"
COc1ccc(C(=O)N2CC(=O)N(CCc3ccccc3)C(=O)C2)cc1OC,"8.2 µM [rising, partial curve]",27,
COc1ccccc1Oc1ccc(N/C=C2/CCCC2=O)cc1,"6.51 µM [rising, single point]",,
Cc1ccc(S(=O)(=O)N2CCN(C(=O)c3ccccc3)CC2)cc1,,-2.63,
O=C(N/N=C/c1cc(Cl)ccc1O)c1ccc(Br)cc1,,55.4,"4.11 µM [rising, full curve, poor fit]"

SMILES,AC50 [1],cell number change [%],AC50 [2]
O=C(NCc1cccc(F)c1)C1CCN(S(=O)(=O)Cc2ccccc2)CC1,"29.1 µM [rising, single point]",4.78,
CCOc1ccc(-c2cn3ccccc3n2)cc1[N+](=O)[O-],"6.51 µM [rising, single point]",4.87,
Cc1ccc(NC(=O)CN2C(=O)S/C(=C\c3cccn3C)C2=O)cc1,,4.02,
O=C(O)CSc1c(O)c2ccccc2[nH]c1=O,,-32.5,
CCCCOc1ccc(-c2nnn(CC(=O)NCCc3c[nH]c4ccccc34)n2)cc1,"2.06 µM [rising, partial curve]",-11.6,"1.84 µM [rising, partial curve]"
O=C1C2CC=C(Cl)CC2C(=O)N1CNc1ccccn1 (stereo not given),"25.9 µM [falling, partial curve]",-9.37,
NC(=O)c1ccc(NC(=O)COC(=O)c2ccc(Cl)nc2)cc1,"6.51 µM [rising, partial curve, poor fit]",-18.9,
CSc1nsc(SCC(=O)Nc2cc(C(=O)O)ccc2C)n1,"0.164 µM [falling, full curve]",-10.9,
CCOC(=O)c1ccn(-c2nc(-c3ccco3)cc(C(F)(F)F)n2)n1,"3.66 µM [rising, single point]",-13.4,
O=C(NC1CCCc2ccccc21)c1ccc(Cl)nc1 (stereo not given),,0.694,
CCOC(=O)N1CCN(C(=O)CNC(=O)c2ccc(Br)o2)CC1,,18.9,
NS(=O)(=O)c1ccc(NC(=O)COC(=O)c2c3c(nc4ccccc24)/C(=C\c2ccc4c(c2)OCO4)CCC3)cc1,"29.1 µM [falling, single point]",-29.6,"2.06 µM [rising, partial curve]"
C=CCN(c1ccccc1)S(=O)(=O)c1ccc(Cl)c(C(=O)OCC(=O)N(C)C2CCS(=O)(=O)C2)c1 (stereo not given),,-24.6,"0.92 µM [rising, partial curve]"
Cc1ccc(C23CC4CC(CC(C(=O)NCC(=O)O)(C4)C2)C3)cc1,"29.1 µM [rising, single point]",,
COc1cc(C(=O)OCC(C)=O)c([N+](=O)[O-])cc1OC,"5.17 µM [falling, single point]",18.4,
CCOC(=O)[C@H]1[C@H]2COc3ccc(OC)cc3[C@@H]2N2C(=O)c3cc(OC)ccc3NC(=O)[C@@]12C,"0.731 µM [rising, full curve, poor fit]",-29.6,
COCCNC(=O)c1c[nH]c2ccc(S(=O)(=O)N3CCOCC3)cc2c1=O,"14.6 µM [falling, single point]",10.9,
O=C(Nc1cccnc1N1CCOCC1)c1ccco1,"25.9 µM [falling, single point]",-48.2,"5.8 µM [falling, partial curve]"
COc1cccc2cc3c(=O)n(-c4ccccc4)nc-3oc12,"29.1 µM [rising, single point]",-14.4,
COC(=O)c1sccc1NC(=O)Cc1ccc(OC)c(OC)c1,,-50,"1.64 µM [falling, partial curve]"

# A few values from above:
# In AC50 [2], COC(=O)c1sccc1NC(=O)Cc1ccc(OC)c(OC)c1 shows 1.64 µM [falling, partial curve]
# In cell number change [%], COCCNC(=O)c1c[nH]c2ccc(S(=O)(=O)N3CCOCC3)cc2c1=O shows 10.9

# The listing continues:

SMILES,AC50 [1],cell number change [%],AC50 [2]
CCOC(=O)c1c(NCc2ccc3c(c2)OCO3)c2ccccc2[nH]c1=O,"1.46 µM [rising, full curve]",,"1.3 µM [rising, full curve]"
Cc1nc(C)c(C(=O)Nc2nc3c(C)cccc3s2)o1,"6.51 µM [falling, partial curve]",-16,"6.51 µM [falling, single point]"
CCC(/C=N/NC(=O)c1ccccc1F)CC,"0.326 µM [rising, full curve]",-24.4,"1.46 µM [rising, full curve]"
COc1ccccc1C(=O)NCCC(=O)NCC(c1ccc(F)cc1)N1CCOCC1 (stereo not given),,,"4.11 µM [rising, partial curve]"
CCOc1ccc(N(C(C)C(=O)Nc2cccnc2)S(C)(=O)=O)cc1 (stereo not given),"4.11 µM [rising, full curve, poor fit]",35.7,
Nc1ccc(O)c2c1C(=O)c1ccccc1C2=O,"29.1 µM [falling, single point]",-2.39,
COc1cc(/C=C/C(=O)Nc2cccc(S(=O)(=O)N3CCOCC3)c2)ccc1OCC#N,"29.1 µM [rising, single point]",28,
Cc1ccc(C2(C)NC(=O)N(CC(=O)Nc3ccc(-c4nc5ccc(C)cc5s4)cc3)C2=O)cc1 (stereo not given),,16.6,
O=C(CN1CCN(Cc2ccc(Cl)cc2)C1=O)NCCCN1CCOCC1,"25.9 µM [rising, single point]",-5.38,
CCOc1ccc(N(CC(=O)Nc2ccccc2OCC)S(=O)(=O)c2c(C)noc2C)cc1,,-5.9,
COc1cccc2c1OC1(C)CC2NC(=O)N1c1cccc(C(=O)Nc2ccc3c(c2)OCCO3)c1 (stereo not given),"6.51 µM [rising, single point]",13.1,
Cc1ccc(Cl)cc1NC(=O)c1cnn2c1NC(c1ccco1)CC2C(F)(F)F (stereo not given),"0.291 µM [rising, partial curve, poor fit]",281,"8.2 µM [rising, partial curve]"
Cc1ccc(C(=O)NC(=S)Nc2ccccc2N2CCCC2)cc1[N+](=O)[O-],,-36.2,"0.13 µM [rising, full curve]"
Cn1nc(C(=O)NCc2ccccn2)c2ccccc2c1=O,"16.4 µM [rising, partial curve, poor fit]",-5.33,
COC(=O)Nc1ccc(S(=O)(=O)N(C)C)cc1,"6.51 µM [falling, partial curve]",-56.6,"0.461 µM [falling, full curve, poor fit]"
NC(=O)c1cc(C(=O)c2ccccc2Cl)c[nH]1,,14.8,"0.164 µM [falling, full curve, poor fit]"
Cc1ccc(S(=O)(=O)NCC(=O)N(CC(=O)NCc2ccco2)Cc2ccccc2)cc1,"0.00461 µM [falling, full curve, poor fit]",16.7,
CCN1C(=O)[C@@H]2[C@@H](c3ccc(-c4ccc(C(C)=O)cc4)cc3)N3CCCC[C@@]3(C(=O)OC)[C@@H]2C1=O,"23.1 µM [falling, partial curve, poor fit]",-2.31,
O=C(/C=C/c1ccco1)Nc1ccc(-c2nc3ccccc3[nH]2)cc1,"0.0058 µM [rising, full curve, poor fit]",4.39,

# Part of the list above, tab-delimited:
SMILES	AC50 [1]	cell number change [%]	AC50 [2]
Cc1ccc(C2(C)NC(=O)N(CC(=O)Nc3ccc(-c4nc5ccc(C)cc5s4)cc3)C2=O)cc1 (stereo not given)		16.6	
O=C(CN1CCN(Cc2ccc(Cl)cc2)C1=O)NCCCN1CCOCC1	25.9 µM [rising, single point]	-5.38	
CCOc1ccc(N(CC(=O)Nc2ccccc2OCC)S(=O)(=O)c2c(C)noc2C)cc1		-5.9	
